Experimental data: PubChem BioAssay AID504808 (Drosophila RNAi Screening Center, 2011)
The screen tested about 21,000 reagents; shown is a random part of those that have a named target and a result. In the full data, 18 (0.084%) are marked active. 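Raw counts without plate normalisation, one of two replicates; the ratio scores behind the calls were not deposited.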 A number with no mark means an inactive call. Names joined by + are all predicted targets of the reagent. No sequences are given here. Not given: the amount of reagent, the time to read-out.

- Screen: 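Chromatin factors that keep E2F targets switched off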 (primary screen)
- Cells: Drosophila S2 cells
- Reagents: long dsRNA against Drosophila genes
- Measurement: 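Firefly luciferase driven by E2F sites, normalised to Renilla luciferase on the same minimal promoter, measured by plate reader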
- Reading the numbers: E2F firefly: higher = more E2F reporter activity; Renilla normaliser: higher = more normaliser reporter signal
- Rule for the call: 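a knock-down counted as active when the firefly/Renilla E2F signal rose above 50%, a threshold chosen arbitrarily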

no.	gene	PubChem SID	E2F firefly, rep 1	Renilla normaliser, rep 1
1	Prp18	SID104196594	56849	3509
2	tth	SID104199227	8723	720
3	CG13114	SID104182004	1.48e5	5440
4	CadN	SID104183078	89224	3519
5	clt	SID104184413	1.09e5	5022
6	CG43980	SID104191292	84834	4552
7	CG43980	SID104191438	1.36e5	6198
8	VhaPPA1-1	SID104195962	61766	3337
9	Ag5r	SID104199119	8094	832
10	CG42450	SID104199814	1.31e5	5534
11	CG34210	SID104184371	96516	4027
12	Ir84a	SID104192302	1.53e5	6433
13	CG7484	SID104190645	1.49e5	8784
14	Prip	SID104186836	2908	221
15	CG16998	SID104190027	1.14e5	4547
16	CG11898	SID104194224	1.27e5	6591
17	Pfdn1	SID104182117	1.55e5	5146
18	CG15471	SID104197846	1.22e5	5534
19	eys	SID104179905	1.12e5	4755
20	eys	SID104180194	1.60e5	5529
21	eys	SID104180195	1.56e5	5368
22	eys	SID104180487	94705	3385
23	Nach	SID104187270	1.38e5	5686
24	hth	SID104196759	1.56e5	6729
25	CG5790	SID104182688	84820	3604
26	Obp50c + Obp50b	SID104185274	1.24e5	4911
27	Obp56e	SID104186980	1.40e5	4730
28	CG33257	SID104189709	1.70e5	8125
29	CG13365	SID104197691	60796	3606
30	LTV1	SID104185743	2415	216
31	CG9106	SID104199946	8490	692
32	CG31089	SID104195726	1.13e5	6103
33	CG5262	SID104191565	70340	3314
34	CG3107	SID104184680	82633	3505
35	CG14221	SID104199370	1.47e5	6484
36	CG5676	SID104182667	1.54e5	5858
37	hang	SID104199693	5147	672
38	hang	SID104199694	87796	4246
39	Snap29	SID104184513	91595	4584
40	CG12377 (retired record)	SID104191463	1.22e5	5726
41	CG12377 (retired record)	SID104191464	1.24e5	5844
42	cdi	SID104196714	74147	4180
43	Idh3g	SID104195491	1.16e5	5840
44	CG13544	SID104183978	1.03e5	4889
45	CG32603	SID104199201	1.52e5	16065
46	wuc	SID104185944	97692	3618
47	Sox21b	SID104189817	88379	3814
48	Sox21b	SID104190426	1.21e5	6107
49	sel	SID104186024	83992	3581
50	CG13946	SID104180156	1.65e5	5267
51	Mipp2	SID104198474	8189	704
52	SkpF + CG5357 (retired record)	SID104183912	1.04e5	4837
53	obst-A	SID104200335	1.49e5	5413
54	Mettl2	SID104188190	67885	3369
55	Nup154	SID104183176	71741	3553
56	CG11674	SID104199206	7862	848
57	CG30151	SID104185680	1.58e5	5555
58	EMC6	SID104194178	99853	6072
59	CR40354	SID104200715	77332	2777
60	gus	SID104184677	89800	4034
61	gus	SID104184678	1.03e5	4538
62	loco	SID104194994	1.02e5	5774
63	loco	SID104196781	78215	3718
64	Rab3	SID104187315	3397	193
65	mRpS14	SID104199236	1.33e5	5146
66	pst	SID104190795	77944	4377
67	Socs44A	SID104186620	1.49e5	4806
68	fax	SID104191137	66571	3944
69	side-VI	SID104192620	78262	3339
70	side-VI	SID104192622	64524	3130
71	side-VI	SID104194712	1.49e5	6162
72	side-VI	SID104195416	1.23e5	5000
73	CG42729	SID104190028	1.70e5	7239
74	Nos	SID104183173	71249	3121
75	flfl	SID104196266	68078	2870
76	Obp83b	SID104192152	1.42e5	6776
77	CG13494	SID104183931	1.05e5	4505
78	Sil1	SID104194034	66208	3573
79	Pld	SID104184646	84477	4200
80	CG10055	SID104192295	1.24e5	6108
81	Fas3	SID104181430	1.21e5	5115
82	Fas3	SID104183118	89796	4089
83	Pdhb	SID104194212	1941	1028
84	CG5149	SID104182611	98975	4643
85	eff	SID104196732	1.68e5	6660
86	CG10638	SID104189554	97849	4925
87	CG17784	SID104195060	1.07e5	6138
88	CG10512	SID104191407	1.33e5	6317
89	CG31300	SID104194449	1.12e5	5381
90	DCTN4-p62	SID104185893	3416	189
91	CG17778	SID104198296	57556	5659
92	Or59c	SID104184425	1.15e5	4675
93	sphe	SID104199995	1.74e5	6320
94	Rab19	SID104191052	99856	3744
95	CG32225	SID104189449	89954	3933
96	Lztr1	SID104197968	1.26e5	5593
97	Lztr1	SID104198439	1.00e5	4974
98	Lrp4	SID104199910	8035	796
99	CG9270	SID104182974	83602	3275
100	CG10588	SID104191420	1.28e5	7483
101	Cog7	SID104196123	1.13e5	6647
102	CG3021	SID104197957	1.23e5	7397
103	CG3021	SID104198444	1.19e5	5823
104	SmB	SID104183229	55886	3732
105	Strip	SID104187986	83996	3398
106	Oatp58Db	SID104184156	94316	3668
107	SamDC	SID104183221	79813	3943

Entries listed so far whose target name begins with P or p:
gene	PubChem SID	E2F firefly, rep 1	Renilla normaliser, rep 1
Prp18	SID104196594	56849	3509
Prip	SID104186836	2908	221
Pfdn1	SID104182117	1.55e5	5146
pst	SID104190795	77944	4377
Pld	SID104184646	84477	4200
Pdhb	SID104194212	1941	1028
